Assay results: article PMC7171071
Results are given in words; binding and its absence hold for the method and conditions named. In cells and extracts the contact can be indirect. Some results given as binding are weak or reduced against the parent protein; the word gives no strength.

What was measured:
[1] = molecular target: BAX (human (endogenous in HCT116)), Q07812; assay: co-IP; endogenous proteins in HCT116 lysates (NP40 0.5%, 150 mM NaCl, 50 mM Tris, pH 7.4); overnight at 4 °C with BCL-XL-, MCL-1-, BAX- or NOXA-specific antibodies, protein G agarose, western blot; cells untreated or challenged with NaCl (60 mM, 5 h or 24 h), WEHI-539 (1.25 µM) or S63845 (2.5 µM); settings: remark: other sources report otherwise
[2] = molecular target: MCL-1 (human (endogenous in HCT116)), Q07820; assay: as above; settings: remark: other sources report otherwise

B1: NOXA, Q13794 1-54 (protein)
chain: MPGKKARKNAQPSPARAPAELEVECATQLRRFGDKLNFRQKLLNLISKLFCSGT
[1]
  binding: no binding
[2]
  binding: binds
